Measured values reported in PMC8429728, “TNK1 is a ubiquitin-binding and 14-3-3-regulated kinase that can be targeted to block tumor growth” (Nature Communications, 2021).
Changes are numbered by the printed parent chain. No constants are given. Whether binding was seen depends on the method and setting. Binding seen in cells or lysates may run through a third protein. Binding can be weak; no strength is given. Sequences can lack the tags named with a protein.

How the values were obtained:
FLAG-TNK1 T392A (human) = molecular target: T1, FLAG-TNK1 T392A (human) (UniProt Q13470); experiment: co-IP; FLAG-TNK1 (WT or mutants) precipitated on anti-DYKDDDDK resin from HEK-293T lysate (10 mM HEPES KOH pH 7.5, 150 mM KCl, 0.01% IGEPAL), 1 h 4 °C, washed with PBS; immunoblotted for 14-3-3 or ubiquitin; in Fig. 2c cells treated with 1 uM kinase inhibitors for 4 h
T1 sequence: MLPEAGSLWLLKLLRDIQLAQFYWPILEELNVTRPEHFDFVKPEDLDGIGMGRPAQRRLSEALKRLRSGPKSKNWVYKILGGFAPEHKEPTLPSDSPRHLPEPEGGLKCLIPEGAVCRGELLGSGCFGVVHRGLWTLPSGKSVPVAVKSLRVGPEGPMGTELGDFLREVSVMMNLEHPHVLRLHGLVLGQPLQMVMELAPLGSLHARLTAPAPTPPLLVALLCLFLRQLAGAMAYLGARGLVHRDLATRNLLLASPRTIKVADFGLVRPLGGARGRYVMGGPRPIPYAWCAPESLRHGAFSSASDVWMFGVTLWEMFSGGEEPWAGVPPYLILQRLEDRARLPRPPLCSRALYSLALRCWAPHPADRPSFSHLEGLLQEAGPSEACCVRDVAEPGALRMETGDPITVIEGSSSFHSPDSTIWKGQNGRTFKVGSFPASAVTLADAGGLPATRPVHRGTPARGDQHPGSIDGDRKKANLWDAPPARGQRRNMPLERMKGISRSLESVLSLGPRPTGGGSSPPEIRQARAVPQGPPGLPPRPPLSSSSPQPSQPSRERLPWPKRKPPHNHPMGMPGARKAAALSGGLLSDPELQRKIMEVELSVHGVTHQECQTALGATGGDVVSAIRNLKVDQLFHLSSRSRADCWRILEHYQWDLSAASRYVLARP

FLAG-TNK1 S434A (human) = molecular target: T2, FLAG-TNK1 S434A (human) (UniProt Q13470); experiment: as above
T2 sequence: T1 sequence with A392T, S434A

[1] = molecular target: T3, FLAG-TNK1 (wild type) (human) (UniProt Q13470); experiment: as above
T3 sequence: T1 sequence with A392T

[2] = molecular target: T4, FLAG-TNK1 (stably expressed in A549) (human) (UniProt Q13470); experiment: co-IP; FLAG-TNK1 precipitated on FLAG resin from A549 cells stably expressing it, after siRNA (100 nM) against individual MARK kinases; immunoblotted for pS502 and 14-3-3
T4 sequence: T1 sequence with A392T

Measured: binding

14-3-3 (endogenous, isoform not told) (human (endogenous in HEK-293T or A549))
binds: all assays above
